# From PMC12620021 (Nucleic Acids Research, 2025)
# Protein sequences, listed by entry. Tags and fused reporters are not part of them. Residues count along the entry.
# UniProt P9WF09, residues 2-85: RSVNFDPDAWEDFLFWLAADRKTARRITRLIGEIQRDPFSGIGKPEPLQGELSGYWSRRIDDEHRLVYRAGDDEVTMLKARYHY
# These are yes or no findings as the source states them, for the method shown. In cells and extracts the contact can be indirect. Some binding calls cover weakened binding; strength is not graded here. Sequences can lack the tags named with a protein.
# B1: RelE1 toxin (from pETDuet–RelB1His–RelE1) (protein, UniProt O50461 1-97)
# chain: MSDDHPYHVAITATAARDLQRLPEKIAAACVEFVFGPLLNNPHRLGKPLRNDLEGLHSARRGDYRVVYAIDDGHHRVEIIHIARRSASYRMNPCRPR
# What was measured:
# [1] = target: T1, RelB3(YefM) antitoxin with a C-terminal 6xHis-tag (from pETDuet-YefMHis-YoeB) (Mycobacterium tuberculosis H37Rv) (UniProt P9WF25); test: pull-down
# T1 sequence: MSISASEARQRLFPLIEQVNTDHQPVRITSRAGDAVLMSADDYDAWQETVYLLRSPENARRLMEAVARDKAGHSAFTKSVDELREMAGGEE
# [2] = target: T2, RelB1His antitoxin (from pETDuet–RelB1His) (Mycobacterium tuberculosis H37Rv) (UniProt O50462); test: pull-down
# T2 sequence: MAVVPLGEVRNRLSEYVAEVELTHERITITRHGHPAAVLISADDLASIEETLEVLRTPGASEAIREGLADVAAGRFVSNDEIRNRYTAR
Molecule,binding [1],binding [2]
RelE3(YoeB) toxin (from pETDuet-YefMHis-YoeB) (from UniProt P9WF09 2-85),binds,
B1,,binds
